pIC50: −log10 of the molar value. Structures were worked out from names or drawings and are uncertain.
Molecular target: full-length human PRMT6 (Flag- and His-tagged) (Homo sapiens, UniProt Q96LA8)
Assay: PRMT6 biochemical assay (3H-SAM Flashplate, histone H4 36-50 K44me1 peptide)
Conditions: read-out: PRMT6 IC50; 1 nM PRMT6, 30 min preincubation, 75 nM peptide
Excerpt: S-adenosylmethionine (SAM), S-adenosylhomocysteine (SAH), bicine, Tween20, dimethylsulfoxide (DMSO), bovine skin gelatin (BSG), sodium butyrate and Tris(2-carboxyethyl)phosphine hydrochloride solution (TCEP) were purchased from Sigma-Aldrich at the highest level of purity possible. ^3H-SAM was purchase from American Radiolabeled Chemicals with a specific activity of 80 Ci/mmol. 384-well streptavidin Flashplates were purchased from PerkinElmer.
Peptide representative of human histone H4 residues 36-50 was synthesized with an N-terminal linker-affinity tag motif and a C-terminal amide cap by 21st Century Biochemicals. The peptide was purified by high-performance liquid chromatography (HPLC) to greater than 95% purity and confirmed by liquid chromatography mass spectrometry (LC-MS). The sequence was Biot-Ahx-RLARRGGVKRISGLI-amide and contained a monomethylated lysine at position 44 (SEQ ID NO.:5).
Full-length human PRMT6 (NM_018137.2) transcript clone was amplified from an HEK 293 cDNA library, incorporating a flanking 5′ sequence encoding a FLAG tag (MDYKDDDDK) (SEQ ID NO.:6) fused directly to Ser 2 of PRMT6 and a 3′ sequence encoding a hexa His sequence (HHHHHH) (SEQ ID NO.: 17) fused directly to Asp 375. The amplified gene was subcloned into pFastBacMam (Viva Biotech).
Recombinant baculovirus were generated according to Bac-to-Bac kit instructions (Life Technologies). […]

Chains of the proteins cited; added tags and fusions are not shown. A line that says so, or that is headed by a name, gives the form on record, which may keep a tag or linker. Residues count along the entry.
UniProt Q96LA8, 2-375 with tags or gaps: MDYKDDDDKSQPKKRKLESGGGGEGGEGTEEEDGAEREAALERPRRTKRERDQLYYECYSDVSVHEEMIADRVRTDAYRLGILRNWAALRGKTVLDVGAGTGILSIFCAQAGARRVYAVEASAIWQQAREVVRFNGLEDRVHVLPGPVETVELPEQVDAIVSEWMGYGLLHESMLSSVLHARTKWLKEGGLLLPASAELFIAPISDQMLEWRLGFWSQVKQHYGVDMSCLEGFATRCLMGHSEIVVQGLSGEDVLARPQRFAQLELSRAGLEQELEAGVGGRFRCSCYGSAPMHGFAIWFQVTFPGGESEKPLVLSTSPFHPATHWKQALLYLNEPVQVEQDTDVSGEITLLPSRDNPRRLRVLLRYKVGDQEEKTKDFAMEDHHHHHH

pIC50: 7.55
SMILES: CNCCN(C)Cc1ncsc1[C@H]1CC[C@@]2(CC1)CC(C)(C)CO2 [compound 83]

Source: US20170291905A1, “ARGININE METHYLTRANSFERASE INHIBITORS AND USES THEREOF” (Epizyme, Inc., priority 2014, published 2017)
